Test results as given in the supplement of paper PMC3334620.
Over roughly 33,000 sequences, “E-score (-0.5 to 0.5)” has its median near -8e-05; the highest 2% begin near 0.23. This is one part of the list.

molecular target: T1, Nrg2 (UniProt P38082); test: PBM E-score (8-mer binding enrichment) (E-score (-0.5 to 0.5)); higher = stronger / more preferred TF binding; conditions: protein concentration: 100 nM; construct: GST-full length
T1 sequence: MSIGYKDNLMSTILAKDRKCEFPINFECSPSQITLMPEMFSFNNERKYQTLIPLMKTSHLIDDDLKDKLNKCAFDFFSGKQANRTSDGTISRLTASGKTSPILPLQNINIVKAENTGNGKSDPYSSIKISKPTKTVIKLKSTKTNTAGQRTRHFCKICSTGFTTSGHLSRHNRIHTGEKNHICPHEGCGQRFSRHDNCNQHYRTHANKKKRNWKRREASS
How it was run: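 Yeast transcription factors, full-length or as DNA-binding domains, were expressed with a GST tag using PURExpress in vitro transcription/translation. At about 100-200 nM they were applied to universal all-10-mer Agilent arrays, double-stranded by primer extension on fresh or once-stripped slides. Fluorescent anti-GST detected bound protein, and masliner normalised the scans. E-scores for ungapped eight-base words, pooled with reverse complements, came from the Universal PBM Analysis Suite.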

Row | Sequence | PBM E-score
1 | GGCACGCC | -0.31
2 | CATTTTCC | 0.0879
3 | CATTGATC | 0.0648
4 | ATGTATAC | 0.126
5 | GACGAGCC | 0.0584
6 | CGGGCCTA | -0.0975
7 | GAACTTTA | -0.0689
8 | CGGCCACA | 0.0914
9 | ACGACCCA | 0.0623
10 | GCATGCTA | -0.0999
11 | CGGAGCAA | 0.0265
12 | CGGATCTA | -0.11
13 | CTCTTACA | -0.119
14 | ATGTAAAC | 0.1
15 | ACTCCCGC | -0.0823
16 | ACACGCCA | 0.0125
17 | GTTCGCCA | -0.0462
18 | AAAGGACT | -0.155
19 | GCCCGCAA | 0.0877
20 | CATCAAAA | 0.0292
21 | ACGTTTCG | -0.104
22 | ACAGATAT | 0.115

Row | Sequence | PBM E-score
23 | AAACTAAG | 0.185
24 | ATCATCAT | -0.00753
25 | GAATAGGA | 0.0976
26 | ACTAAAAC | 0.125
27 | TACGAAAA | -0.0899
28 | AGCTGTCC | 0.0544
29 | GGGTGTCA | 0.0253
30 | TACGCCTA | -0.227
31 | AGAGTTTG | 0.0665
32 | AAACCTGC | 0.101
33 | CGTCACCA | -0.0898
34 | AATAATGC | 0.083
35 | CGGCAACA | 0.0747
36 | CCCCGACC | -0.101
37 | TAGAGCGA | -0.079
38 | CGGGACGA | 0.0185
39 | ACTTAAGC | -0.222
40 | AAAAAGAG | -0.0377
41 | AAGTCCAG | 0.0978
42 | GCGAATAA | 0.18
43 | AGACCGAG | -0.053
44 | GGAATGGA | -0.0278

Rewritten tab-delimited: entries from further up.
Row	Sequence	PBM E-score
4	ATGTATAC	0.126
5	GACGAGCC	0.0584
6	CGGGCCTA	-0.0975
7	GAACTTTA	-0.0689
8	CGGCCACA	0.0914
9	ACGACCCA	0.0623
10	GCATGCTA	-0.0999
11	CGGAGCAA	0.0265
12	CGGATCTA	-0.11
13	CTCTTACA	-0.119
14	ATGTAAAC	0.1
15	ACTCCCGC	-0.0823
16	ACACGCCA	0.0125
17	GTTCGCCA	-0.0462
18	AAAGGACT	-0.155
19	GCCCGCAA	0.0877
20	CATCAAAA	0.0292
21	ACGTTTCG	-0.104
22	ACAGATAT	0.115

Further results follow:

Row | Sequence | PBM E-score
45 | CCAGGGCC | 0.106
46 | ACGATAAG | 0.0548
47 | AATTCTAC | 0.231
48 | TAATCTCA | 0.0067
49 | GCTTGCAA | 0.206
50 | ACGGGCTA | -0.131
51 | CTTCTGAA | -0.0225
52 | CCGCGACG | -0.247
53 | ATAGGTAG | -0.0537
54 | AAGTTAAA | 0.076
55 | ACATGGCG | -0.126
56 | GGACAAAA | 0.159
57 | CGGCATTC | 0.0691
58 | GGGGTATA | 0.0333
59 | AGCCCACA | -0.0846
60 | ACATGGAC | 0
61 | ATGCACCC | 0.013
62 | CACTCGAC | -0.0704
63 | AAAGGGCC | 0.125
64 | CTGGGAAG | -0.0935
65 | ATTGGCGC | -0.0325
66 | CTGAGAAC | 0.0907

Row | Sequence | PBM E-score
67 | TCATTTCA | 0.118
68 | CAAATGTC | -0.0721
69 | CTATCGAG | -0.0206
70 | GGTCACCA | -0.355
71 | CCGTACTC | -0.0831
72 | GCCGCCTA | -0.0809
73 | ACCAACAT | 0.0787
74 | CTGTGTAC | 0.0416
75 | AGTTATCG | 0.076
76 | CGTGGGGC | 0.0844
77 | AAGCTAAT | 0.11
78 | CCAGCGAA | -0.0764
79 | CAGGTGAA | 0.125
80 | CAGATCCA | 0.0254
81 | CCAAAACC | 0.0823
82 | AGCCAGCC | -0.247
83 | GTCAACAA | -0.0634
84 | AAATAGTA | 0.173
85 | ACTGTCTG | -0.0959
86 | CGGGGGTA | -0.189

From no. 79 as far as 80, as listed above:
Row | Sequence | PBM E-score
79 | CAGGTGAA | 0.125
80 | CAGATCCA | 0.0254
